# Laboratory results reported in the supplement of paper PMC12819154, “High-throughput peptide-centric local stability assay extends protein–ligand identification to membrane proteins, tissues and bacteria” (Nature Structural & Molecular Biology, 2025).
# The chains behind the UniProt entries cited, without tags or fusion partners. Where a name states a change or a piece, a line headed by the entry shows the natural chain unless it says otherwise.
# UniProt P56213: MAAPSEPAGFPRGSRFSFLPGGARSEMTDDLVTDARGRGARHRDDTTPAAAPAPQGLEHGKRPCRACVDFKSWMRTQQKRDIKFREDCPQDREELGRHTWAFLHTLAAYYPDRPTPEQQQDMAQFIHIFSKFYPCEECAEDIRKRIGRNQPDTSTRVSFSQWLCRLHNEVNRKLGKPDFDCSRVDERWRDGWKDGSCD
# UniProt P58283: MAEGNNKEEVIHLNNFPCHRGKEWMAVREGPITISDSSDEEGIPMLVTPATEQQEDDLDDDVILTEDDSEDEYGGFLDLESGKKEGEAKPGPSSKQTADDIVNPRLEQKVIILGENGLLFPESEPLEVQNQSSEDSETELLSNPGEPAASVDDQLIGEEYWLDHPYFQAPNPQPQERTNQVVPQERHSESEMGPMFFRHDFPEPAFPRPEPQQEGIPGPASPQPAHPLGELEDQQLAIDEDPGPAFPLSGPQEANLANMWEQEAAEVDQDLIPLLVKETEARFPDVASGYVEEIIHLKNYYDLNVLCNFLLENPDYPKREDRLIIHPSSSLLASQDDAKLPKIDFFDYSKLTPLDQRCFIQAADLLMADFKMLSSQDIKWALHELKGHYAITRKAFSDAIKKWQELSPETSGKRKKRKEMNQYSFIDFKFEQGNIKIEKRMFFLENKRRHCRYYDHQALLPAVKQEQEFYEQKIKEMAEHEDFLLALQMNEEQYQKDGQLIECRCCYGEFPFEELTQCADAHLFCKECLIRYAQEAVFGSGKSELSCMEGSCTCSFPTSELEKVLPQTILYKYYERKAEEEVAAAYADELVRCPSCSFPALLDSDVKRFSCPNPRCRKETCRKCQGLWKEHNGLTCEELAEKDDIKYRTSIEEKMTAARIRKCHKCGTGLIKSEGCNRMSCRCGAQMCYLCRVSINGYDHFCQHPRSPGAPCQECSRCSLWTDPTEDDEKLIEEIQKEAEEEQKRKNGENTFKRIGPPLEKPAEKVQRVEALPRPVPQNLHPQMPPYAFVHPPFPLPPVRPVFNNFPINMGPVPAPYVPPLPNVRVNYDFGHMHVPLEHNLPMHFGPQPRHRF
# UniProt P54254: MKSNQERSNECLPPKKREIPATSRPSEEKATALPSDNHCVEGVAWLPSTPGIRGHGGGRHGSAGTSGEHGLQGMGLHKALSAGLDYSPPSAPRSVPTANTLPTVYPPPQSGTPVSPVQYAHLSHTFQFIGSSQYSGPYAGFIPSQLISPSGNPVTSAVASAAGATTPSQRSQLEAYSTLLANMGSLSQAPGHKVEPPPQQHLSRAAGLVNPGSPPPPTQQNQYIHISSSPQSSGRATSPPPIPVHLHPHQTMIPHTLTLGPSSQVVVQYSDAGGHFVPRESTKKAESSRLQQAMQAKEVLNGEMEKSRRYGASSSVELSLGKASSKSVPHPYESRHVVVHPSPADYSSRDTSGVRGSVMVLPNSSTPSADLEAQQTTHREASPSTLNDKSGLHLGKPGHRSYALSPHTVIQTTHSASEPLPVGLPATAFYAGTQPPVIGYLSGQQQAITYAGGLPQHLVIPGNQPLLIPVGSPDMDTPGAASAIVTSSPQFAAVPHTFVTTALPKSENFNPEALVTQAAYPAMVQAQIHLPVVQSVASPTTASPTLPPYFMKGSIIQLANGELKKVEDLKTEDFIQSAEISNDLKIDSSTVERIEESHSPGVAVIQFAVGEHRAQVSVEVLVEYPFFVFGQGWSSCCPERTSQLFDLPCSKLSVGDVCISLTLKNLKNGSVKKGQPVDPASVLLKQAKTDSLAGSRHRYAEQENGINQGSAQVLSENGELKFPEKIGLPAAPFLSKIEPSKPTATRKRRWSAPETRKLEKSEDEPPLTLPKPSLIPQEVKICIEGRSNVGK
# UniProt P58871: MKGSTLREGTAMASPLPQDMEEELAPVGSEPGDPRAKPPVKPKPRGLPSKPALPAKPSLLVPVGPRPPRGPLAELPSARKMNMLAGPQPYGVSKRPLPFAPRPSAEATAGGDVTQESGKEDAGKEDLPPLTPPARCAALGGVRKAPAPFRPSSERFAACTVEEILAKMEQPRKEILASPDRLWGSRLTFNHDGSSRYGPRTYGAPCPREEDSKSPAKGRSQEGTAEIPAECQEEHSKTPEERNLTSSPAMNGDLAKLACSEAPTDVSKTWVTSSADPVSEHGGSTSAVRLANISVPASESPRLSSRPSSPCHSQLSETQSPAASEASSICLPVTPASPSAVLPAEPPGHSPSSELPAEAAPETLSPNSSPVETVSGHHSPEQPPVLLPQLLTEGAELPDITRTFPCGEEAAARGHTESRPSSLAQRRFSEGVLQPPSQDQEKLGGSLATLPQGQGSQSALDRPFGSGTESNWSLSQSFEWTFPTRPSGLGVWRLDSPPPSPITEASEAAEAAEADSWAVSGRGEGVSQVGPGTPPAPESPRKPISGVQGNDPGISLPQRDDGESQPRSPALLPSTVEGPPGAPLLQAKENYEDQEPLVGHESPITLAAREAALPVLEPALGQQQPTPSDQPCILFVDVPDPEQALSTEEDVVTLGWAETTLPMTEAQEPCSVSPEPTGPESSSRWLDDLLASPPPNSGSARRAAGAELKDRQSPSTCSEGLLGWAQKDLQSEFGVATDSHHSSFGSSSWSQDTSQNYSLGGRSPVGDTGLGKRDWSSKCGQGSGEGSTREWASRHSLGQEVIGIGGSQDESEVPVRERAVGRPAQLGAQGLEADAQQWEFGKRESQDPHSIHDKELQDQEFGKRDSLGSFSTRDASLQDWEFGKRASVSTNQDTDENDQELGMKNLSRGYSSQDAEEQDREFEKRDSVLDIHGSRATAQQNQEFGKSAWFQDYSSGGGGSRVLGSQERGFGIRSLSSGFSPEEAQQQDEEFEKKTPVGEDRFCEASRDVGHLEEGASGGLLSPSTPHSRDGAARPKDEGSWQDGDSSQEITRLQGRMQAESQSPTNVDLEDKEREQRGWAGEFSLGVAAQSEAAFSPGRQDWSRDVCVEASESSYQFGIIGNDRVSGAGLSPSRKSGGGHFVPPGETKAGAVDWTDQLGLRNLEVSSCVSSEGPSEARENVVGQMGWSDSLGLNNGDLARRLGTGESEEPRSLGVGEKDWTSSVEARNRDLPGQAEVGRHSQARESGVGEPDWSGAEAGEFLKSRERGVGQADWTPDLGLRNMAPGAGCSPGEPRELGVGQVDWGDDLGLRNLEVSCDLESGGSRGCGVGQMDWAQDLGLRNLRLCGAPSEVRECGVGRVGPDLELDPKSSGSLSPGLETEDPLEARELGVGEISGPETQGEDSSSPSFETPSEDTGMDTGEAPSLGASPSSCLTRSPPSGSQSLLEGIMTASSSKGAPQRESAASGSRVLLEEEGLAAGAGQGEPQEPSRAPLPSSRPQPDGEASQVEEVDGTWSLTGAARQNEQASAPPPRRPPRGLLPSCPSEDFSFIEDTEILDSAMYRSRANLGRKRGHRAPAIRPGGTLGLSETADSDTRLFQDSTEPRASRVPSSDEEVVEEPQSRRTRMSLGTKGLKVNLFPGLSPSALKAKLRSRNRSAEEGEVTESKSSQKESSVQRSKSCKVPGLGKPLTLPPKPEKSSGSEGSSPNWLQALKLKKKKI
# UniProt P58501: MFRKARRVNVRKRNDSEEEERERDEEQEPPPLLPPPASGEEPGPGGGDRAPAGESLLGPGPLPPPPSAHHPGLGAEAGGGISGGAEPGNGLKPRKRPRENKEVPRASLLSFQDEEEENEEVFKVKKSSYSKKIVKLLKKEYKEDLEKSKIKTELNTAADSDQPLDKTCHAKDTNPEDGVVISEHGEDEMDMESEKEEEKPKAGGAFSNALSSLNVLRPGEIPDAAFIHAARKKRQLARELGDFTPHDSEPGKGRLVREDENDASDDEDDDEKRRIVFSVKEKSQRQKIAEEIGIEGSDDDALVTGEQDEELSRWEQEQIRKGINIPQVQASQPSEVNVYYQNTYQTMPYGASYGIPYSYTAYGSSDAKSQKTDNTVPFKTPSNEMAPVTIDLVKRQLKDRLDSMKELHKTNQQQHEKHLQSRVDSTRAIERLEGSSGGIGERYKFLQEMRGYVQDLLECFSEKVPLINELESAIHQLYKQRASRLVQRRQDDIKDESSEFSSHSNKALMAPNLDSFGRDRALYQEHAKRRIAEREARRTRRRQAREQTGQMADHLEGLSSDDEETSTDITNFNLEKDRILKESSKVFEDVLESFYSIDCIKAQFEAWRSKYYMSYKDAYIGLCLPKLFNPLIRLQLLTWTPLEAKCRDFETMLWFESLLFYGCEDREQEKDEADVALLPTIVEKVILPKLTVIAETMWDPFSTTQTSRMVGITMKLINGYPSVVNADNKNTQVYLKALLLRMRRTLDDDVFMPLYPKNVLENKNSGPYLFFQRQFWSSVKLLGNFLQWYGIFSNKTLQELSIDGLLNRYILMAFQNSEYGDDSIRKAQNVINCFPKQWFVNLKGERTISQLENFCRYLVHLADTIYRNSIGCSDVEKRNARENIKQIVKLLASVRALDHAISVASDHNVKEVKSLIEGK
# UniProt P56376: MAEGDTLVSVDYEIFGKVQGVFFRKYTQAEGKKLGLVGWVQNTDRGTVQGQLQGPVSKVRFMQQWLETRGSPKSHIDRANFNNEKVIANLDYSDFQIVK
# UniProt P59672: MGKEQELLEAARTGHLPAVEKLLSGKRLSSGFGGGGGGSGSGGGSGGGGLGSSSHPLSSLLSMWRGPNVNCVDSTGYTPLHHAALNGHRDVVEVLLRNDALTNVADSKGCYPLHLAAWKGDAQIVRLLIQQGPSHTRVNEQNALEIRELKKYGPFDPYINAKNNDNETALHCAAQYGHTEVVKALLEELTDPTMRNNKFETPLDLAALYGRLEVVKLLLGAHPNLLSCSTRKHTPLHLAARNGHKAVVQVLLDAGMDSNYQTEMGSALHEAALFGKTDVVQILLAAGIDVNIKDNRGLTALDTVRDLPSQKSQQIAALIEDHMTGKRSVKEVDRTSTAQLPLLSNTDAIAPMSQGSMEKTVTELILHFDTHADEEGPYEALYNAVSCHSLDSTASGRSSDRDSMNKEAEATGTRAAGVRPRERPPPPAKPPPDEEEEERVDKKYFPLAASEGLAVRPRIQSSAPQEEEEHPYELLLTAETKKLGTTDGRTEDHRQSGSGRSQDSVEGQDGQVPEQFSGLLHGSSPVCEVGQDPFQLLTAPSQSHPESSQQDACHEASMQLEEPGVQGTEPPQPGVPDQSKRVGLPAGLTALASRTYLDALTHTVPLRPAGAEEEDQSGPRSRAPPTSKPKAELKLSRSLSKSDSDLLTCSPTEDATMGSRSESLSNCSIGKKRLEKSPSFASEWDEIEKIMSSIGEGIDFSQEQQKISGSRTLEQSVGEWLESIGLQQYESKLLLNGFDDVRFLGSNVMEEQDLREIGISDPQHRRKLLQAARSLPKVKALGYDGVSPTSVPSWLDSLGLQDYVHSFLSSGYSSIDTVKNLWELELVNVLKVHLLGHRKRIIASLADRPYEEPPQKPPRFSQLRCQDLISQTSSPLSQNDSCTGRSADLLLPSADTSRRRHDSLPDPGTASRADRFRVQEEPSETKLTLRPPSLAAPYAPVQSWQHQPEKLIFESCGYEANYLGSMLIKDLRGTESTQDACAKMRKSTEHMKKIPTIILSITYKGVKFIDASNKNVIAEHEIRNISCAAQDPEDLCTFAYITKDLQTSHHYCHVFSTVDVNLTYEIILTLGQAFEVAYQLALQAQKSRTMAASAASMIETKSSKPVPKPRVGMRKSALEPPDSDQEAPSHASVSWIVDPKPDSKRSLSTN
# UniProt P58390, whole entry: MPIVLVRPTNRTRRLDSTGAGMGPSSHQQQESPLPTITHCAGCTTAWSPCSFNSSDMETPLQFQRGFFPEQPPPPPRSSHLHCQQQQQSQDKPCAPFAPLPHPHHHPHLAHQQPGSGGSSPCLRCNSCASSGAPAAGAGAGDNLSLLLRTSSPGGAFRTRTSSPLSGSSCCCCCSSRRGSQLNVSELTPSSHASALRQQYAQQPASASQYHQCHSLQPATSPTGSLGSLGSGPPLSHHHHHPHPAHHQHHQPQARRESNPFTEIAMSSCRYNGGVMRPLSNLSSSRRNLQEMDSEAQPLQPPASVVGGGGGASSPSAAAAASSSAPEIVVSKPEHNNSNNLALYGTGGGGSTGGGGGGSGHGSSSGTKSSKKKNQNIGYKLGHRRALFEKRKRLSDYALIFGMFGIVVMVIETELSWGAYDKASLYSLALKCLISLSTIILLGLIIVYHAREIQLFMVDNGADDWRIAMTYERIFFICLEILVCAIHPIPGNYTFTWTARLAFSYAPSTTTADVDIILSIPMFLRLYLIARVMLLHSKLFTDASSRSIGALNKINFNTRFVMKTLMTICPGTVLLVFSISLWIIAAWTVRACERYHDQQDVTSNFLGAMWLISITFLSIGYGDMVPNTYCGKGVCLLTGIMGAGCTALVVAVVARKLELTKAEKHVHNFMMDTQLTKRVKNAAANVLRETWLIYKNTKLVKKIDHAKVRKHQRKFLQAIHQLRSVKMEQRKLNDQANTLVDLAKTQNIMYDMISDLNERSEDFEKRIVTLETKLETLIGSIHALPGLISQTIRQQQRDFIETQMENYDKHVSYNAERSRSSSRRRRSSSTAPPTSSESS
# This is one part of the list. Most values lie at the level of the controls, where differences are scatter.
# Compound: CN[C@@H]1C[C@H]2O[C@@](C)([C@@H]1OC)n1c3ccccc3c3c4c(c5c6ccccc6n2c5c31)C(=O)NC4 [staurosporine]
# Assay: log2 fold change of tryptic peptide abundance, ligand vs vehicle (limited proteolysis) (log2 ratio); higher = more trypsin-susceptible (destabilized)
# Conditions: ligand concentration: 20 uM; sample: mouse liver crude lysate; replicate design: treated separately
row,Target,log2 fold change
1,"UniProt P56873 (peptide sequence: ACAEALGSLK, peptide start residue: 186)",-0.045
2,"UniProt P56213 (peptide sequence: SEMTDDLVTDAR, peptide start residue: 25)",0.0368
3,"UniProt P55088 (peptide sequence: GSYMEVEDNR, peptide start residue: 275)",-0.117
4,"UniProt P54775 (peptide sequence: GVLMYGPPGCGKTMLAK, peptide start residue: 201)",-0.304
5,"UniProt P54071 (peptide sequence: GKLDGNQDLIR, peptide start residue: 383)",0.178
6,"UniProt P57080 (peptide sequence: HITEEELCVLESCLHR, peptide start residue: 540)",-0.355
7,"UniProt P55050 (peptide sequence: LTITQDGNKFTVK, peptide start residue: 39)",0.171
8,"UniProt P56391 (peptide sequence: NCWQNYLDFHRCEKAMTAK, peptide start residue: 29)",-0.444
9,"UniProt P58283 (peptide sequence: HSESEMGPMFFR, peptide start residue: 187)",0.489
10,"UniProt P54276 (peptide sequence: MAHVSKFDR, peptide start residue: 498)",-0.45
11,"UniProt P63139 (peptide sequence: ESFREQDIYLPIANVAR, peptide start residue: 50)",0.0691
12,"UniProt P56656 (peptide sequence: VQEEAQCLVEELRK, peptide start residue: 145)",-0.236
13,"UniProt P63037 (peptide sequence: YHPDKNPNEGEKFK, peptide start residue: 33)",0.157
14,"UniProt P54761 (peptide sequence: ENGGASHPLLDQR, peptide start residue: 890)",-0.244
15,"UniProt P60670 (peptide sequence: LSPDGHFGSK, peptide start residue: 357)",-0.291
16,"UniProt P58742 (peptide sequence: GQWINLPVLHLTK, peptide start residue: 40)",0.288
17,"UniProt P61211 (peptide sequence: IGISKSELVAMLEEEELRK, peptide start residue: 100)",-0.248
18,"UniProt P54869 (peptide sequence: VSKDASPGSPLEKLVSSVSDLPK, peptide start residue: 425)",0.443

row,Target,log2 fold change
1,"UniProt P54254 (peptide sequence: HVVVHPSPADYSSR, peptide start residue: 336)",-0.193
2,"UniProt P54728 (peptide sequence: ASFNNPDR, peptide start residue: 213)",0.151
3,"UniProt P58281 (peptide sequence: EVLEDFAEDGEKKVK, peptide start residue: 912)",-0.183
4,"UniProt P58871 (peptide sequence: HSLGQEVIGIGGSQDESEVPVRER, peptide start residue: 795)",-0.26
5,"UniProt P63094 (peptide sequence: RVFNDCR, peptide start residue: 374)",-0.159
6,"UniProt P57016 (peptide sequence: KAAVSEQPQTTGGSQATTREPR, peptide start residue: 299)",-0.406
7,"UniProt P58501 (peptide sequence: NSIGCSDVEKR, peptide start residue: 868)",0.522
8,"UniProt P54843 (peptide sequence: GVSKEEVIR, peptide start residue: 277)",-0.159
9,"UniProt P58043 (peptide sequence: LLAHRPWLITK, peptide start residue: 161)",-0.0537
10,"UniProt P54726 (peptide sequence: ILSDDVPIKEYHIDEK, peptide start residue: 54)",-0.51
11,"UniProt P58801 (peptide sequence: MMSLSQSR, peptide start residue: 172)",0.495
12,"UniProt P56390 (peptide sequence: THLMSEEEWR, peptide start residue: 35)",0.0404
13,"UniProt P61922 (peptide sequence: FWAHEHWGLDDPADVMTFSK, peptide start residue: 338)",-0.39
14,"UniProt P56376 (peptide sequence: FMQQWLETR, peptide start residue: 61)",0.202
15,"UniProt P58006 (peptide sequence: VHVNLLLIEAR, peptide start residue: 465)",0.121
16,"UniProt P59672 (peptide sequence: VQEEPSETK, peptide start residue: 918)",-0.266
17,"UniProt P58390 (peptide sequence: VKNAAANVLR, peptide start residue: 679)",-0.321
18,"UniProt P54116 (peptide sequence: AKVIAAEGEMNASR, peptide start residue: 219)",-0.227

# An excerpt of these results, bar-delimited.
row | Target | log2 fold change
3 | UniProt P55088 (peptide sequence: GSYMEVEDNR, peptide start residue: 275) | -0.117
4 | UniProt P54775 (peptide sequence: GVLMYGPPGCGKTMLAK, peptide start residue: 201) | -0.304
5 | UniProt P54071 (peptide sequence: GKLDGNQDLIR, peptide start residue: 383) | 0.178
6 | UniProt P57080 (peptide sequence: HITEEELCVLESCLHR, peptide start residue: 540) | -0.355
7 | UniProt P55050 (peptide sequence: LTITQDGNKFTVK, peptide start residue: 39) | 0.171
8 | UniProt P56391 (peptide sequence: NCWQNYLDFHRCEKAMTAK, peptide start residue: 29) | -0.444
9 | UniProt P58283 (peptide sequence: HSESEMGPMFFR, peptide start residue: 187) | 0.489
